Screen size: about 400,000 compounds; about 13,000 (3.2%) were called active. This list was built around the results that the source calls inconclusive (neither active nor inactive); the mix of calls is not that of the screen. The call rests on the fitted dose curve; in most records, active means well fitted cell-killing curve with a large enough effect; inconclusive means small, poorly fitted or top-dose-only effect, or effect the other way; inactive means flat fitted curve, though single readings scatter. Where the call is inconclusive, the potency comes from a doubtful curve fit. Where a structure was tested more than once in an assay, its records may differ in their call.
Assay: qHTS assay for MDR1-selective chemotherapeutics: Primary screen using the drug-selected MDR subline cells KB-V1; further: nearly all actives have a fitted effect of over 60% in size
Details: KB-V1 MDR cells viability, CellTiter-Glo, 72 h; activity change, negative = cytotoxicity: at 46.1 µM (top of the series)
Method in brief: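 KB-V1 cells (P-gp-expressing MDR subline of KB-3-1) in phenol-red-free DMEM with 10% FBS were exposed to library compounds over a concentration series for 72 h at 37 degrees C. Viability read by CellTiter-Glo luminescence; concentration-effect curves fitted after normalization.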
For `COc1cc2ccccc2cc1C(=O)OCC(=O)N(CC(C)C)c1c(N)n(Cc2ccccc2)c(=O)[nH]c1=O`, the “activity change, negative = cytotoxicity” value was inactive: -1.84%.
In the case of `COc1ccc(/C=N/NC(=O)c2ccc(O)cc2)cc1CN1CCCc2ccccc21`, the “activity change, negative = cytotoxicity” value is reported as inactive: 15.3%.
In the case of `O=c1c(-c2ccco2)nc2ccccc2n1C(c1ccccn1)c1nc2ccccc2[nH]1` (stereo not given), the Potency is reported as inconclusive: 23.1 µM [cytotoxic, partial curve].
With `Cc1cc(C)cc(NC(=O)C2CCCN2/C=C/C(=O)C(F)(F)F)c1` (stereo not given) the Potency was inconclusive: 29.1 µM [cytotoxic, single point].
With `Cc1ccc(NC(=O)Cc2nc(CN(C)CC(=O)Nc3ccc(C)cc3)cs2)cc1` the “activity change, negative = cytotoxicity” value was inactive: 0%.
For `CC(=O)Nc1cc2cc(NS(=O)(=O)c3ccc(C)cc3)ccc2oc1=O`, the Potency was inconclusive: 29.1 µM [rising, single point].
For `CN(C)c1cc(-c2ccc(Cl)cc2Cl)oc(=O)c1Cl`, the Potency was inconclusive: 18.4 µM [cytotoxic, partial curve, poor fit].
For `O=C(CSc1nc(-c2cccs2)nc2cc(=O)[nH]n12)Nc1ccccc1`, the “activity change, negative = cytotoxicity” value was inactive: 9.04%.
With `COc1cccc2cc(C(=O)NC3CC4CCC3C4)oc12` (stereo not given) the activity change, negative = cytotoxicity was inconclusive: -20.1%.
In the case of `N#Cc1cccc(C(c2nnnn2C2CCCC2)N2CCCCCC2)c1` (stereo not given), the Potency is reported as inconclusive: 20.6 µM [cytotoxic, partial curve, poor fit].
In the case of `COc1cccc(NC(=S)NCc2ccco2)c1`, the Potency is reported as inconclusive: 9.2 µM [cytotoxic, partial curve, poor fit].
For `COc1ccc(C(=O)NCCn2cc(SCc3cccc(F)c3)c3ccccc32)cc1OC`, the Potency was inconclusive: 23.1 µM [cytotoxic, single point].
For `CC1CCN(S(=O)(=O)c2ccc3c(c2)N(CC(=O)NCCN2C(C)CCCC2C)C(=O)CS3)CC1` (stereo not given), the activity change, negative = cytotoxicity was inconclusive: 15.2%.
For `CCCC(=O)Nc1c(O)c2ccccc2[nH]c1=O`, the Potency was inconclusive: 23.1 µM [rising, single point].
For `COc1ccc(CCNC(=O)Cn2cc(C(=O)c3ccc(Cl)cc3)c(=O)c3ccc(C)nc32)cc1OC`, the “activity change, negative = cytotoxicity” value was inactive: 7.55%.
With `CCOC(=O)c1c(C)n(C)c2ccc(OC)c(NC(=O)CCN3CCSCC3)c12` the Potency was active: 13 µM.
For `CC1(C)C(=O)NC(=O)N1Cc1ccccc1`, the Potency was inconclusive: 16.4 µM [rising, partial curve, poor fit].
With `CCOC(=O)C1CCN(c2nc3c(S(=O)(=O)c4ccc(Br)cc4)nnn3c3ccsc23)CC1` the “activity change, negative = cytotoxicity” value was inactive: -3.03%.
With `CCc1ccc(NC(=O)CC(c2cc(OC)c(OC)c(OC)c2)N2Cc3ccccc3C2=O)cc1` (stereo not given) the “activity change, negative = cytotoxicity” value was inactive: 0%.
With `N#Cc1cc2c(=O)n3ccccc3nc2n(CCCn2ccnc2)c1=N` the “activity change, negative = cytotoxicity” value was inactive: 17.9%.
With `O=[N+]([O-])c1ccc2[nH]c(O)c(N=NC(=S)NCC3CCCO3)c2c1` (stereo not given) the “activity change, negative = cytotoxicity” value was inactive: -24.4%.
In the case of `CCOc1ccc(NC(=O)CN2CCC(n3cnc4cc(F)ccc43)CC2)cc1`, the Potency is reported as inconclusive: 0.92 µM [cytotoxic, full curve].
In the case of `O=C(NC(=S)Nc1ccc(N2CCOCC2)cc1)c1cccc([N+](=O)[O-])c1`, the Potency is reported as inconclusive: 14.6 µM [cytotoxic, partial curve].
In the case of `CCOC(=O)Cc1c(C)nc2c(-c3ccccc3OC)c(C)nn2c1C`, the “activity change, negative = cytotoxicity” value is reported as inactive: -7.42%.
In the case of `COc1ccc(NC(=O)NNC(=O)c2ccc3ccccc3c2O)c(OC)c1`, the Potency is reported as inconclusive: 29.1 µM [rising, single point].
With `COc1cc(S(=O)(=O)Nc2c(C)cc(C)cc2C)ccc1Cl` the Potency was active: 18.4 µM.
In the case of `Cn1c(=O)n(C)c2cc(NS(=O)(=O)c3ccc(F)cc3)c(NCc3ccccc3)cc21`, the Potency is reported as inconclusive: 29.1 µM [cytotoxic, single point].
For `OC(CN1c2ccccc2Sc2ccccc21)Cn1nnc2ccccc21` (stereo not given), the Potency was active: 16.4 µM.
For `CCc1ccc(/C=N/NC(=O)C(=O)NCCCN2CCOCC2)cc1`, the Potency was inconclusive: 20.6 µM [rising, single point].
With `CCOC(=O)c1c(C)n(-c2ccccc2)c2ccc(O)cc12` the Potency was inconclusive: 9.2 µM [cytotoxic, partial curve].
With `O=C1CCC[C@@H]2[C@H](Cc3ccccc3)[C@@H](O)C[C@@H]3CCN1[C@@H]32` the Potency was active: 14.6 µM.
For `COc1cc(C2NC(=S)NC(c3ccccc3)=C2C(C)=O)cc(Cl)c1OCC(=O)O` (stereo not given), the Potency was inconclusive: 25.1 µM [rising, single point].
In the case of `Cc1cccc([C@@H]2[C@@H]3C(=O)N(Cc4ccccc4)C(=O)[C@@H]3[C@]3(Cc4ccccc4)C(=O)N(c4ccccc4)C(=O)N23)c1`, the “activity change, negative = cytotoxicity” value is reported as inactive: 0%.
With `CCOC(=O)CSC1=C(C#N)C(=O)NC(c2ccc(OC)c(OC)c2)S1` (stereo not given) the “activity change, negative = cytotoxicity” value was inactive: 2.48%.
For `COc1ccc(S(=O)(=O)n2nc(C)c(S(=O)(=O)N3CCCCC3)c2C)cc1`, the “activity change, negative = cytotoxicity” value was inactive: 0%.
For `CC(=O)c1cn(CC(=O)Nc2ccccc2Cl)c2ccccc12`, the Potency was inconclusive: 6.51 µM [cytotoxic, full curve, poor fit].
For `Cc1c(Cl)cccc1-n1ncc(C(=O)N2CCN(C)CC2)c1C1CCN(C(=O)OC(C)(C)C)CC1`, the Potency was inconclusive: 0.58 µM [cytotoxic, full curve, poor fit].
With `Cc1ccc(C2C=C(c3ccccc3)Nc3nc(N4C(=O)CCC4=O)nn32)cc1` (stereo not given) the Potency was inconclusive: 20.6 µM [rising, single point].
With `Cc1cccc(NC(=O)c2ccc([N+](=O)[O-])o2)c1` the Potency was active: 18.4 µM.
With `Cc1sc2nc(COC(=O)c3ccc(N4CCCC4)c([N+](=O)[O-])c3)[nH]c(=O)c2c1C` the Potency was inconclusive: 23.1 µM [rising, single point].
In the case of `CC1CCN(C(=O)c2ccc3c(c2)N(Cc2ccccc2F)C(=O)c2ccccc2S3(=O)=O)CC1`, the “activity change, negative = cytotoxicity” value is reported as inactive: 5.9%.
In the case of `C=C(C)Cn1c(SCC(=O)Nc2ccccc2C)nc2sc3c(c2c1=O)CCCC3`, the “activity change, negative = cytotoxicity” value is reported as inactive: 6.47%.
For `CCN(CCCNC(=O)c1c(C)cc(=O)oc1C)c1cccc(C)c1`, the Potency was inconclusive: 14.6 µM [cytotoxic, single point].
With `COc1ccc(-c2ccnc(-c3ccc(OCCCF)cc3)n2)cc1` the Potency was inconclusive: 18.4 µM [cytotoxic, single point].
With `COc1ccc(S(=O)(=O)N2CCC(c3nc4ccccc4[nH]3)CC2)cc1` the Potency was inconclusive: 18.4 µM [cytotoxic, partial curve].

Source: PubChem BioAssay AID1347076 (National Center for Advancing Translational Sciences (NCATS), 2019)
On the % scale 0 is the no-effect control and ±100 the full control effect; potency means the concentration at half of the fitted maximal effect.
